Source: PubChem BioAssay AID504795 (Drosophila RNAi Screening Center, 2011)
The reagents shown are a selection, not the whole library. 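Every listed dsRNA shows some phenotype; how reagents were selected for listing is not stated.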 A plus sign joins genes that one reagent is predicted to hit.

Purpose: 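Genes required for normal axon extension and glial cell shape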 (primary screen)
Cells: primary Drosophila neurons and glia
Knock-down reagent: long dsRNA against Drosophila genes, 250 ng dsRNA per well
Timing: one week
Measured: 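Descriptive morphology terms assigned by visual inspection of live automated images of GFP-marked cells, taken one week after adding 250 ng dsRNA per well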

CG32425 (GeneID 40273) [DRSC11739]: phenotype seen, replicate 1 = axon bundles split apart
Cisd2 (GeneID 43459) [DRSC14904]: phenotype seen, replicate 1 = axon bundles split apart
CG6034 (GeneID 39974) [DRSC10572]: phenotype seen, replicate 1 = sheet-like cell extensions
CG11035 (GeneID 40953) [DRSC14287]: phenotype seen, replicate 1 = abnormal cell clusters
CG13045 (GeneID 39792) [DRSC09926]: phenotype seen, replicate 1 = reduced axon outgrowth
CG18557 (GeneID 33483) [DRSC00524]: phenotype seen, replicate 1 = too many neurite branches

Taken from above:
Entry of CG11035 (GeneID 40953) [DRSC14287] under “phenotype seen, replicate 1”: abnormal cell clusters
Under “phenotype seen, replicate 1”, CG6034 (GeneID 39974) [DRSC10572] reads sheet-like cell extensions

Additional results follow.
CG4854 (GeneID 42391) [DRSC15663]: phenotype seen, replicate 1 = too many neurite branches
Cp15 (GeneID 38999) [DRSC11118]: phenotype seen, replicate 1 = sheet-like cell extensions
sbr (GeneID 43944) [DRSC20368]: phenotype seen, replicate 1 = abnormal cell clusters
Nup133 (GeneID 42680) [DRSC16150]: phenotype seen, replicate 1 = too many neurite branches
CG4984 + CG4975 [DRSC06907]: phenotype seen, replicate 1 = axon bundles split apart
bdwf (GeneID 42057) [DRSC15532]: phenotype seen, replicate 1 = too many neurite branches
CG11537 (GeneID 38373) [DRSC08200]: phenotype seen, replicate 1 = too many neurite branches
CG7550 (GeneID 38901) [DRSC10875]: phenotype seen, replicate 1 = abnormal cell clusters
Cp18 (GeneID 38998) [DRSC11120]: phenotype seen, replicate 1 = too many neurite branches
Obp56i (GeneID 246667) [DRSC05812]: phenotype seen, replicate 1 = axon bundles split apart
RpL27 (GeneID 43103) [DRSC15638]: phenotype seen, replicate 1 = beaded; swollen axons
CG13722 (GeneID 38555) [DRSC21616]: phenotype seen, replicate 1 = axon bundles split apart
Brca2 (GeneID 37916) [DRSC04220]: phenotype seen, replicate 1 = weaker green signal
